In doi:10.1101/2022.08.12.503734:
Results are given in words; binding and its absence hold for the method and conditions named. In cells and extracts the contact can be indirect. Some binding calls cover weakened binding; strength is not graded here. For part of these data: Tags and fused reporters may be left off the sequences shown.

Chains of the proteins cited; added tags and fusions are not shown.
UniProt P00546: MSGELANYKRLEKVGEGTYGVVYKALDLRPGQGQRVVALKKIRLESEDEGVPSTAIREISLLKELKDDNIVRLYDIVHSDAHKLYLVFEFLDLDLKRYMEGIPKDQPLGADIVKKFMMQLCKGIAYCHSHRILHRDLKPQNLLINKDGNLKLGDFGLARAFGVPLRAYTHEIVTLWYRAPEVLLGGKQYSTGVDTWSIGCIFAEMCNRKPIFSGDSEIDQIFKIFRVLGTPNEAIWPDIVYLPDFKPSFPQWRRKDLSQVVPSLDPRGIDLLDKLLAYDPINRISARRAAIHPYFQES

What was measured:
[1] = molecular target: T1, Clb2-3XHA (S. cerevisiae (budding yeast)) (UniProt P24869); assay: co-IP
T1 sequence: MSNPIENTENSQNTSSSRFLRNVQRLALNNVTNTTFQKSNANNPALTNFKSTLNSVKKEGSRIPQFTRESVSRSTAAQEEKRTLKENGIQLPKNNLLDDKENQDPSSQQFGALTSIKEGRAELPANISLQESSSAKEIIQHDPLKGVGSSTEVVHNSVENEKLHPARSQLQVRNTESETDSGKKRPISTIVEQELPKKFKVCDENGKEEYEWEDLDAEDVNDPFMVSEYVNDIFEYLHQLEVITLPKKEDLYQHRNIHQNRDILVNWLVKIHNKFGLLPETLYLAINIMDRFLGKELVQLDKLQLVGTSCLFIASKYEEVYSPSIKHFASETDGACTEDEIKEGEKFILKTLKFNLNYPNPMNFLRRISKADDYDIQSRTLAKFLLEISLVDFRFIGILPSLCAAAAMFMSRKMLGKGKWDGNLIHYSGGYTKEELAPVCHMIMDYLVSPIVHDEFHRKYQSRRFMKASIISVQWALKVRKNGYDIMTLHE

[2] = molecular target: T2, GST-Clb2 (S. cerevisiae (budding yeast)) (UniProt P24869); assay: pull-down
T2 sequence: T1 sequence

[3] = molecular target: T3, GST-Cln2 (S. cerevisiae (budding yeast)) (UniProt P20438); assay: pull-down
T3 sequence: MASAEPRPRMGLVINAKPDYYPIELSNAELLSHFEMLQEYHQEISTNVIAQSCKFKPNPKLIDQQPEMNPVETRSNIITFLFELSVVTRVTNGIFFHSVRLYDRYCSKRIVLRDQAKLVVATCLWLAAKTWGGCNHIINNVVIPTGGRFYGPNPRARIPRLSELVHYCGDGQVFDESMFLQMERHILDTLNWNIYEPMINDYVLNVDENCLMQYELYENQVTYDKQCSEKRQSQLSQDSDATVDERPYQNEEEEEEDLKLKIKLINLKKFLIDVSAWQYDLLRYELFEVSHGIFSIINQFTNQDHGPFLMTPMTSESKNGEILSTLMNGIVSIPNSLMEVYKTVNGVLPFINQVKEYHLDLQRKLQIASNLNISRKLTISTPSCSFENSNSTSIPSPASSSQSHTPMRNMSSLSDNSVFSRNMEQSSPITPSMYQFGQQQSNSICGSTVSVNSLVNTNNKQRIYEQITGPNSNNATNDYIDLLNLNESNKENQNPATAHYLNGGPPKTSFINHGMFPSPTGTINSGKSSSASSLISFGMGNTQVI

Measured: binding

Cdk1 (from UniProt P00546 1-298) (enzyme)
binds: all assays above
